Article PMC10878141
Results are given in words; binding and its absence hold for the method and conditions named. In cells and extracts the contact can be indirect. Some entries that bind do so weakly or less than the wild type. For part of these data: Where a sequence is shown, tags or fusion partners need not be part of it.

Amino acid sequences for entries named in this document (tags omitted).
UniProt Q16665: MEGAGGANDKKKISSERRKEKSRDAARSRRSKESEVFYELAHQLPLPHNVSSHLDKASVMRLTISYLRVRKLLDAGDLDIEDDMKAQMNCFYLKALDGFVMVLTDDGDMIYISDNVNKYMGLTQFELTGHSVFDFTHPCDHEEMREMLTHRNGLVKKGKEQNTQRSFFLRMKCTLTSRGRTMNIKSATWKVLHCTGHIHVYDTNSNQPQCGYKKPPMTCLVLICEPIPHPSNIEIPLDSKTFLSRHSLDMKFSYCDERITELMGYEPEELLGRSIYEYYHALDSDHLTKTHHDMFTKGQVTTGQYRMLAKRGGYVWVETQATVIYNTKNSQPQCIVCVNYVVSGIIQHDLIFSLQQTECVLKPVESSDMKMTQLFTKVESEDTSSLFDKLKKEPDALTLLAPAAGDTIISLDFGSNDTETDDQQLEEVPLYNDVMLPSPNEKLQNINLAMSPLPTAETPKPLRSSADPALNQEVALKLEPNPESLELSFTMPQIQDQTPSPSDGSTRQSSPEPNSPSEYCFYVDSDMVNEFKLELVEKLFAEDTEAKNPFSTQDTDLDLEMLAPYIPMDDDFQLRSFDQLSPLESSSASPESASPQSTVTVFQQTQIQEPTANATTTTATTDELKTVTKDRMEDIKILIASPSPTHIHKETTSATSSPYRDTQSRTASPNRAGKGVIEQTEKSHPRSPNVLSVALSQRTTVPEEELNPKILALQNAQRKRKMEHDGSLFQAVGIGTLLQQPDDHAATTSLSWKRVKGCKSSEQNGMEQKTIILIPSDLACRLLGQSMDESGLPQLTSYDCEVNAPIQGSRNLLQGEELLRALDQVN
UniProt P06733: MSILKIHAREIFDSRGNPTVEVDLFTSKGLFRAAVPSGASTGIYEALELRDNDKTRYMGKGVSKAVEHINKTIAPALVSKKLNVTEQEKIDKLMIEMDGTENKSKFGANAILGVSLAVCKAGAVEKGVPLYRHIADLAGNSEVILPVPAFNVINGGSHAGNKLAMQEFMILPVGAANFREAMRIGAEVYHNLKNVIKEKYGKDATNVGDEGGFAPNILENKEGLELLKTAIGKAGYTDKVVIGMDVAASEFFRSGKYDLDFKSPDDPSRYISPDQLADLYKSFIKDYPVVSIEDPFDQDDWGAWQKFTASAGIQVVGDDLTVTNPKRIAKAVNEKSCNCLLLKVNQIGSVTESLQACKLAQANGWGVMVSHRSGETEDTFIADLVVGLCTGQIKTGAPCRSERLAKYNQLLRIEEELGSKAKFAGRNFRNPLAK

Columns and labels:
[1] = molecular target: T1, ubiquitin-specific protease 21 (USP21) (human (endogenous in QBC939 and HuCCT1)) (UniProt Q9UK80); experiment: co-IP; endogenous proteins in lysates of CCA cells (QBC939; consistent in HuCCT1); IP of USP21, and reverse IP of HSP90 and of ENO1, then blot
T1 sequence: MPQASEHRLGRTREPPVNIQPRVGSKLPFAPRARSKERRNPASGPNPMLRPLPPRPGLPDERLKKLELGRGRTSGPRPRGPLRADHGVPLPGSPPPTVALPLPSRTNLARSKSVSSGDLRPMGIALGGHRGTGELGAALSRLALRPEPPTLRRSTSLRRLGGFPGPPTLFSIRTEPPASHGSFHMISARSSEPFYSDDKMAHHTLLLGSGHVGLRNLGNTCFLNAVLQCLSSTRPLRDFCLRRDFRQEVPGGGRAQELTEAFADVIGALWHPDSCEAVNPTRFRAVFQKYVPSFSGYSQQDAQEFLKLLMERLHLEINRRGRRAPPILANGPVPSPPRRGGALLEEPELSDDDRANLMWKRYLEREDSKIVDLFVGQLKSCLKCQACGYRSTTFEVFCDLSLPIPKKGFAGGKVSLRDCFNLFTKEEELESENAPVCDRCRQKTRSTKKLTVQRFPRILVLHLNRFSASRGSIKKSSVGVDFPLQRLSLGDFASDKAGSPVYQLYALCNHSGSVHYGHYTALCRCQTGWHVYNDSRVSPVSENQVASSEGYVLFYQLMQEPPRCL

[2] = molecular target: T2, His-USP21 (human) (UniProt Q9UK80); experiment: co-IP; His-USP21 or its truncated mutants transfected into HEK293T cells; co-IP and blot for HSP90 and ENO1
T2 sequence: T1 sequence

binding [1]	binding [2]	Substance
no binding		Hypoxia-inducible factor -1a (HIF1A) (from UniProt Q16665 1-826)
	binds	ENO1 in HEK293T cells (from UniProt P06733 1-434) (enzyme)
binds		alpha-Enolase 1 (ENO1) (from UniProt P06733 1-434) (enzyme)
